Measured values as given in article PMC7801470.
Results are given in words; binding and its absence hold for the method and conditions named. Binding seen in cells or lysates may run through a third protein. Some binding calls cover weakened binding; strength is not graded here.

Chains of the proteins cited; added tags and fusions are not shown.
UniProt O60260: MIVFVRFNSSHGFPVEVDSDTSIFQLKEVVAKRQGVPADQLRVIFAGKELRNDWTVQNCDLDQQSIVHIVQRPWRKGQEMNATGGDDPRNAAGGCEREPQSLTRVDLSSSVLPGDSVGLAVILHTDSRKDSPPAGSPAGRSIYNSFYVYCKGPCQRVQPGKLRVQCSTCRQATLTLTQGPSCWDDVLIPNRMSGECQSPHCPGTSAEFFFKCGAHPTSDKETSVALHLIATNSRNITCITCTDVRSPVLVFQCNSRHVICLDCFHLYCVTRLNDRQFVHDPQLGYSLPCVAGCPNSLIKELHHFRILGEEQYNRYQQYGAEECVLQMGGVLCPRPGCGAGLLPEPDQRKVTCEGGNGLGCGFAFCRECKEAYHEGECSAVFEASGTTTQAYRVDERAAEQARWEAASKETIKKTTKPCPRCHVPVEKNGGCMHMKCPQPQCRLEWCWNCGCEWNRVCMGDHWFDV

Target: PARK2 (UniProt O60260)
Assay: co-IP; co-immunoprecipitation from cells; cell line, precipitating antibody and buffer not told

binding: binds
Substance: BCL-XL (from UniProt Q07817-1 1-233)
